# The other results are listed elsewhere or left out.
# B1: NanH (Corynebacterium diphtheriae), C6JSW6 (protein)
# chain: MYSSNRTYSRAILGLSAVLTLSFTSLVAPVNAEEPETVVPATAELEGEVAATLPSAETGLLDAAPPKPVARGAAGDLQLPAVNEKEVFEEGRVIRAPEPDQSRCYRIPALVTAKNGDLLLAFDNRYGGGDGAKTWCRDAPYENMKRINRQNMQTDIQLYRSVDNGQSFEDFGYIAQGTADVRELSYTDPALVTDRTTGKIFAFFVRAYDYRVGQSSAGFNEGDVEAEIQKRDVQDTVVVESLDGGQTWGNMRLLSALTAKVSSISTGDTIFDGRGRFVTSGAGIQLQYGEHAGRLIVPISVDIDPKDSAKFINLAIYSDDHGQTWQAGIGTAGGAGFSGDVSKIVELSDGRLMMSSKDNDKPRWVSYSEDQGENWSTPKRKIIAPPQHPEKHNTGINVGLIRAYPNAPENSAAARVLLYSAPIDQRYSHKHTEDGRNNGWVMGSCDDGKTWSFGRQIEKNRFQYSSMTVMSDGNIGMVYESGDFSTGMNLKFAKFNMAWLGADCHSNEALGLTGDIDKEIVEAQEKAAEATKEAQEAAEKVQKLTEELAAARKENDELKNQVKGFKEAVGDLANEAEDLADKVFKLETAVTEAKEKATVAEKAASDAVTQLQKAESIAEEQKAKAESAAAEAQALREKLERLEGSILTVKENPEAEEIADLSSTAKDAADAARRAATDANGALSGQKQDEEKPAMGLMGILKVLAGIIPLVAIIATIFQTFRLPFNIPGMR
# Key:
# Experiment in all cases: glycan array binding signal (z-score within array); higher = stronger binding
# Details in all cases: glycan notation: IUPAC condensed, linker removed
# Fuc(a1-2)Gal = target: Fuc(a1-2)Gal
# Procedure, shortened: (§1)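 The Consortium for Functional Glycomics database supplied 3228 glycan arrays, of which those lacking an available protein sequence were dropped. The binding signal, a within-array Z-score, was averaged across arrays of the same protein sequence and across linkers. Negative scores can be read as non-binding.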
# Fuc(a1-2)Gal(b1-3)GalNAc = target: Fuc(a1-2)Gal(b1-3)GalNAc
# Procedure, shortened: as §1
# [1] = target: Fuc(a1-2)Gal(b1-3)GalNAc(a1-3)[Fuc(a1-2)]Gal(b1-4)Glc
# Procedure, shortened: as §1
# [2] = target: Fuc(a1-2)Gal(b1-3)GalNAc(a1-3)[Fuc(a1-2)]Gal(b1-4)GlcNAc
# Procedure, shortened: as §1
# [3] = target: Fuc(a1-2)Gal(b1-3)GalNAc(b1-3)Gal
# Procedure, shortened: as §1
# [4] = target: Fuc(a1-2)Gal(b1-3)GalNAc(b1-3)Gal(a1-4)Gal(b1-4)Glc
# Procedure, shortened: as §1
# [5] = target: Fuc(a1-2)Gal(b1-3)GalNAc(b1-4)[Neu5Ac(a2-3)]Gal(b1-4)Glc
# Procedure, shortened: as §1
# Fuc(a1-2)Gal(b1-3)GlcNAc = target: Fuc(a1-2)Gal(b1-3)GlcNAc
# Procedure, shortened: as §1
# [6] = target: Fuc(a1-2)Gal(b1-3)GlcNAc(b1-2)Man(a1-3)[Fuc(a1-2)Gal(b1-3)GlcNAc(b1-2)Man(a1-6)]Man(b1-4)GlcNAc(b1-4)GlcNAc
# Procedure, shortened: as §1
# [7] = target: Fuc(a1-2)Gal(b1-3)GlcNAc(b1-2)Man(a1-3)[Fuc(a1-2)Gal(b1-3)GlcNAc(b1-2)Man(a1-6)]Man(b1-4)GlcNAc(b1-4)[Fuc(a1-6)]GlcNAc
# Procedure, shortened: as §1
# [8] = target: Fuc(a1-2)Gal(b1-3)GlcNAc(b1-3)Gal(b1-4)Glc
# Procedure, shortened: as §1
# [9] = target: Fuc(a1-2)Gal(b1-3)GlcNAc(b1-3)GalNAc
# Procedure, shortened: as §1
# [10] = target: Fuc(a1-2)Gal(b1-3)GlcNAc(b1-3)[Fuc(a1-3)[Gal(b1-4)]GlcNAc(b1-6)]Gal(b1-4)Glc
# Procedure, shortened: as §1
# [11] = target: Fuc(a1-2)Gal(b1-3)GlcNAc(b1-3)[Gal(b1-4)GlcNAc(b1-6)]Gal(b1-4)Glc
# Procedure, shortened: as §1
# [12] = target: Fuc(a1-2)Gal(b1-3)GlcNAc(b1-3)[Neu5Ac(a2-6)Gal(b1-4)GlcNAc(b1-6)]Gal(b1-4)Glc
# Procedure, shortened: as §1
# [13] = target: Fuc(a1-2)Gal(b1-3)[Fuc(a1-4)]GlcNAc
# Procedure, shortened: as §1
# [14] = target: Fuc(a1-2)Gal(b1-3)[Fuc(a1-4)]GlcNAc(b1-2)Man(a1-3)[Fuc(a1-2)Gal(b1-3)[Fuc(a1-4)]GlcNAc(b1-2)Man(a1-6)]Man(b1-4)GlcNAc(b1-4)GlcNAc
# Procedure, shortened: as §1
# [15] = target: Fuc(a1-2)Gal(b1-3)[Fuc(a1-4)]GlcNAc(b1-3)[Fuc(a1-3)[Gal(b1-4)]GlcNAc(b1-6)]Gal(b1-4)Glc
# Procedure, shortened: as §1
# [16] = target: Fuc(a1-2)Gal(b1-3)[Fuc(a1-4)]GlcNAc(b1-3)[Gal(b1-4)GlcNAc(b1-6)]Gal(b1-4)Glc
# Procedure, shortened: as §1
# Fuc(a1-2)Gal(b1-4)Glc = target: Fuc(a1-2)Gal(b1-4)Glc
# Procedure, shortened: as §1
# Fuc(a1-2)Gal(b1-4)Glc6S = target: Fuc(a1-2)Gal(b1-4)Glc6S
# Procedure, shortened: as §1
# Fuc(a1-2)Gal(b1-4)GlcNAc = target: Fuc(a1-2)Gal(b1-4)GlcNAc
# Procedure, shortened: as §1
# [17] = target: Fuc(a1-2)Gal(b1-4)GlcNAc(b1-2)Man(a1-3)[Fuc(a1-2)Gal(b1-4)GlcNAc(b1-2)Man(a1-6)]Man(b1-4)GlcNAc(b1-4)GlcNAc
# Procedure, shortened: as §1
# [18] = target: Fuc(a1-2)Gal(b1-4)GlcNAc(b1-2)Man(a1-3)[Fuc(a1-2)Gal(b1-4)GlcNAc(b1-2)Man(a1-6)]Man(b1-4)GlcNAc(b1-4)[Fuc(a1-6)]GlcNAc
# Procedure, shortened: as §1
# [19] = target: Fuc(a1-2)Gal(b1-4)GlcNAc(b1-2)[Fuc(a1-2)Gal(b1-4)GlcNAc(b1-4)]Man(a1-3)[Fuc(a1-2)Gal(b1-4)GlcNAc(b1-2)Man(a1-6)]Man(b1-4)GlcNAc(b1-4)GlcNAc
# Procedure, shortened: as §1
# [20] = target: Fuc(a1-2)Gal(b1-4)GlcNAc(b1-3)Gal(b1-4)GlcNAc
# Procedure, shortened: as §1
# [21] = target: Fuc(a1-2)Gal(b1-4)GlcNAc(b1-3)Gal(b1-4)GlcNAc(b1-3)Gal(b1-4)GlcNAc
# Procedure, shortened: as §1
# [22] = target: Fuc(a1-2)Gal(b1-4)GlcNAc(b1-3)GalNAc
# Procedure, shortened: as §1
# [23] = target: Fuc(a1-2)Gal(b1-4)GlcNAc(b1-3)[Fuc(a1-2)Gal(b1-4)GlcNAc(b1-6)]GalNAc
# Procedure, shortened: as §1
# [24] = target: Fuc(a1-2)Gal(b1-4)GlcNAc6S
# Procedure, shortened: as §1
binder,measurement,setting,value
B1,glycan array binding signal (z-score),Fuc(a1-2)Gal,2.31
same,glycan array binding signal (z-score),Fuc(a1-2)Gal(b1-3)GalNAc,-0.163
same,glycan array binding signal (z-score),[1],-0.302
same,glycan array binding signal (z-score),[2],0.088
same,glycan array binding signal (z-score),[3],-0.678
same,glycan array binding signal (z-score),[4],-0.943
same,glycan array binding signal (z-score),[5],1.01
same,glycan array binding signal (z-score),Fuc(a1-2)Gal(b1-3)GlcNAc,0.544
same,glycan array binding signal (z-score),[6],0.302
same,glycan array binding signal (z-score),[7],0.487
same,glycan array binding signal (z-score),[8],-0.417
same,glycan array binding signal (z-score),[9],0.539
same,glycan array binding signal (z-score),[10],-1.23
same,glycan array binding signal (z-score),[11],-0.487
same,glycan array binding signal (z-score),[12],0.171
same,glycan array binding signal (z-score),[13],-0.238
same,glycan array binding signal (z-score),[14],1.88
same,glycan array binding signal (z-score),[15],0.526
same,glycan array binding signal (z-score),[16],-0.64
same,glycan array binding signal (z-score),Fuc(a1-2)Gal(b1-4)Glc,0.081
same,glycan array binding signal (z-score),Fuc(a1-2)Gal(b1-4)Glc6S,-1.08
same,glycan array binding signal (z-score),Fuc(a1-2)Gal(b1-4)GlcNAc,1.32
same,glycan array binding signal (z-score),[17],2.08
same,glycan array binding signal (z-score),[18],1.01
same,glycan array binding signal (z-score),[19],0.4
same,glycan array binding signal (z-score),[20],-1.26
same,glycan array binding signal (z-score),[21],-0.792
same,glycan array binding signal (z-score),[22],-0.349
same,glycan array binding signal (z-score),[23],1.09
same,glycan array binding signal (z-score),[24],-0.645

# 2 entries drawn at random from the list so far:
binder,measurement,setting,value
B1,glycan array binding signal (z-score),Fuc(a1-2)Gal(b1-4)Glc6S,-1.08
same,glycan array binding signal (z-score),[12],0.171
